The other results are listed elsewhere or left out.

The target in the test is T1, OsSMF1 (Oryza sativa, UniProt Q6ZLB0 1-436).
T1 sequence: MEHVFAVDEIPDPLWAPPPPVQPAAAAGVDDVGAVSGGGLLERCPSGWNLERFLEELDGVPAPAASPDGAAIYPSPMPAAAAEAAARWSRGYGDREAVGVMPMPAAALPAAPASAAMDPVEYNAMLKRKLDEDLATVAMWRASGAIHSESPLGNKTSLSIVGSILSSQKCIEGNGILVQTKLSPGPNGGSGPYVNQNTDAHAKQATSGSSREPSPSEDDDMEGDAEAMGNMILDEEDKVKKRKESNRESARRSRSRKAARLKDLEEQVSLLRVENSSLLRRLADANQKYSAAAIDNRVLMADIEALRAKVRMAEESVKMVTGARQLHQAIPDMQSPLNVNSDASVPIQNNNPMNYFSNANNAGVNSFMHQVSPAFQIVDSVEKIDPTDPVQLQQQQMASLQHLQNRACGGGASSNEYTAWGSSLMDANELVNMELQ
Briefly: protein-binding microarray (RPBM); PBS, 2% BSA, 51.3 ng/ul salmon testes DNA, 50 uM zinc acetate, 200 nM TF, 25 C, 1 h; high values mean tight binding. The settings on record: protein: recombinant; tags: N-terminal polyhistidine and DsRed monomer fusion (pET32a); chain copies: 2; label: CyDye5-dUTP incorporated in the synthesized complementary strand; 3' TTTTT single-stranded linker to array surface; dsDNA, one strand shown. The essentials: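 Binding signal here means per-feature fluorescence intensity in arbitrary units. The values were read on an Axon 4000B scanner after a custom Agilent array, double-stranded by primer extension with Cy5-dUTP, was incubated with 200 nM protein at 25 °C for 1 h in PBS with 2% BSA, salmon testes DNA and 50 µM zinc acetate, then washed. The proteins were transcription factors with an N-terminal polyhistidine tag and DsRed, expressed in E. coli BL21-CodonPlus and purified on Ni–NTA.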
On to “CTTTAAAAGCTCGTCATCTTTCTCACACTTTTGTAGTTGTCGGAGTCACCTAGTGCAG”, for which the binding signal was 3150 fluorescence intensity (a.u.).

On to “TCAATCCCGTTCAGGCCCATGGGCCGCACGCGACTGTAATCGGAGTCACCTAGTGCAG”, for which the binding signal was 3210 fluorescence intensity (a.u.).

Take “CTGAATCTATGGTCATGTGTGGCCTAACCCAAACCCGTCTCGGAGTCACCTAGTGCAG”: the binding signal is 14700 fluorescence intensity (a.u.).

For “GAAGCCCAAGTCGAGCCGAGCCGCATGGGCGGCGCCGCTGCGGAGTCACCTAGTGCAG”, the binding signal was 19800 fluorescence intensity (a.u.).

As to “TAATTGTGATCAAAATTGTAACAAATGCACGGTCATTAAGCGGAGTCACCTAGTGCAG”, the binding signal was 3320 fluorescence intensity (a.u.).

On to “GCTCACGTCGTTCCAGGTCACCGTGCTCGGCGACGGCGCCCGGAGTCACCTAGTGCAG”, for which the binding signal is 4540 fluorescence intensity (a.u.).

Turning to “CTGGCCACGTGGTCCTCGGTGGCGGCTCCGAGAAGCCCGACGGAGTCACCTAGTGCAG”, the binding signal is 9530 fluorescence intensity (a.u.).

For the sequence “TTTATTATTAGTTTACGTTTAATACTTCTAATTAGTATAACGGAGTCACCTAGTGCAG”, the binding signal was 3240 fluorescence intensity (a.u.).

With “GATCAGATTAAAGGGGATCAGCTCACTTCTGATATTTCAGCGGAGTCACCTAGTGCAG”, the binding signal is 30600 fluorescence intensity (a.u.).

Consider “GTTGGCCACTAGCAATGGCATTGTCGGTGAGTTTGGAGCTCGGAGTCACCTAGTGCAG”, for which the binding signal was 3720 fluorescence intensity (a.u.).

On to “TACTAATTTAATCCCCTTTGATCTGCTGACTGGTTTACTACGGAGTCACCTAGTGCAG”, for which the binding signal is 5140 fluorescence intensity (a.u.).

In the case of “TCGCGATCTCCGTGTCCCGCCCGCCGTCCATCGACCTCTGCGGAGTCACCTAGTGCAG”, the binding signal was 3550 fluorescence intensity (a.u.).

As to “CTTTTATTTTATAAAGTTAGAATCCACGTATAACAGACCTCGGAGTCACCTAGTGCAG”, the binding signal was 4850 fluorescence intensity (a.u.).

As for “CACCAGCATTAGCTGGCAAAACAGATTGATGTTATACAAGCGGAGTCACCTAGTGCAG”, the binding signal was 3170 fluorescence intensity (a.u.).

In the case of “CCTTGCCGCCGGCCAATTTATTGACTCACCGAGAAGTTTGCGGAGTCACCTAGTGCAG”, the binding signal is 5600 fluorescence intensity (a.u.).

As to “GGATTTGGCTGCTGCATCACTCAGTTTACTGTAGTCTGCACGGAGTCACCTAGTGCAG”, the binding signal was 3580 fluorescence intensity (a.u.).

For “CATGGTGTGCGTGTACGTTCATGTTGTGACACGCTATATACGGAGTCACCTAGTGCAG”, the binding signal was 5510 fluorescence intensity (a.u.).

As for “AGGTGTGGGCCCAACAGATCACATCCTAGTCACCCGGTTGCGGAGTCACCTAGTGCAG”, the binding signal is 9790 fluorescence intensity (a.u.).

With “CGCTCAGAGATGGGCCGACCAAGTCAATAGCCAGCAGTGACGGAGTCACCTAGTGCAG”, the binding signal is 4590 fluorescence intensity (a.u.).

Consider “CAATATGTGATGAACTGATGATGTATGTCACTATGTCAGTCGGAGTCACCTAGTGCAG”, for which the binding signal was 6250 fluorescence intensity (a.u.).

Turning to “ATTATCCCAATCGATGTCGAGATGTTTCCGTGTGTATTCACGGAGTCACCTAGTGCAG”, the binding signal is 4030 fluorescence intensity (a.u.).

Consider “CTCTGACATGACGGGCCCACATGTCGGCCTCTCGCCTCACCGGAGTCACCTAGTGCAG”, for which the binding signal is 4110 fluorescence intensity (a.u.).

Turning to “ACTAGGATCATCCAACGCGTACTGCCACTTTCCAGATCGGCGGAGTCACCTAGTGCAG”, the binding signal is 19700 fluorescence intensity (a.u.).

“CATCTTTTCTCTCCTTCCTCACCTGGCGTGGCGTCGCTCACGGAGTCACCTAGTGCAG”: the binding signal is 3380 fluorescence intensity (a.u.).

Take “GCTGTTCCAGCCTAGAGGCAGAGCAGCAGCAGCCGTTGTCCGGAGTCACCTAGTGCAG”: the binding signal was 38900 fluorescence intensity (a.u.).

As to “TATATGTCCAACGCATAGGAGGTTCCAAGCTAGCATAACCCGGAGTCACCTAGTGCAG”, the binding signal is 3140 fluorescence intensity (a.u.).

For the sequence “TTGTAAGTACTACTACGGTACTACCTCATGATTGTTGCATCGGAGTCACCTAGTGCAG”, the binding signal was 21700 fluorescence intensity (a.u.).

For “TTCGCCTGGACGAAGCAGAGTCACCGTCACCGGCCATCCGCGGAGTCACCTAGTGCAG”, the binding signal is 5580 fluorescence intensity (a.u.).

“AACTCACCTTTGACACGGACTTGTGTTGCCCTGCTGCAGTCGGAGTCACCTAGTGCAG”: the binding signal was 3780 fluorescence intensity (a.u.).

With “TGCACTACGGACCGAACACTTGGCACACATGCATGCAACCCGGAGTCACCTAGTGCAG”, the binding signal is 3260 fluorescence intensity (a.u.).

“AAGCATTAACCAGCAAAAGATTAGTGAGTCACCACTCACTCGGAGTCACCTAGTGCAG”: the binding signal is 13200 fluorescence intensity (a.u.).

As to “CCGGGCGGTCGATACACGACGGATTTTGCCGGCCGTCCTGCGGAGTCACCTAGTGCAG”, the binding signal was 3490 fluorescence intensity (a.u.).

Regarding “ATCGATCGATCAATTGGCCAAGGCGGCAAACGGCGGCGGCCGGAGTCACCTAGTGCAG”, the binding signal was 4060 fluorescence intensity (a.u.).

Turning to “ATATTTAGGTTCGTTGGTCTTGATTTATATACACTCTAAACGGAGTCACCTAGTGCAG”, the binding signal is 3320 fluorescence intensity (a.u.).

Regarding “ATCAGAGTGGTTGGTGGTTAGGCATGCACGTCAGGGTTTCCGGAGTCACCTAGTGCAG”, the binding signal was 4840 fluorescence intensity (a.u.).

In the case of “TGTGACCCTAGCAAAGCGGTGACTAAGGTGCTGTTAAGATCGGAGTCACCTAGTGCAG”, the binding signal was 4200 fluorescence intensity (a.u.).

In the case of “AATGTTGTTGTCACGAATGCATCGATCGATAGACGGCCGGCGGAGTCACCTAGTGCAG”, the binding signal was 3320 fluorescence intensity (a.u.).

As for “GCCTTTCGCCGGTAGCCACATCAGAAATATTGTGTTTGTTCGGAGTCACCTAGTGCAG”, the binding signal is 4170 fluorescence intensity (a.u.).

“CGGCGGCGGAACCATAGAGCTGTCCATGATCAAGACGTGGCGGAGTCACCTAGTGCAG”: the binding signal was 6680 fluorescence intensity (a.u.).

Consider “CGTTCAGCGGGGTCGACGATGCCATGTCGGACGAAACCGCCGGAGTCACCTAGTGCAG”, for which the binding signal is 3170 fluorescence intensity (a.u.).

With “GCACAAAGCACCTCCACTTCATAATGTTCCCTAAACCTTTCGGAGTCACCTAGTGCAG”, the binding signal was 34300 fluorescence intensity (a.u.).

As to “CACGGCGTGGTTTCATCTGGTAGGTCTGCGTCCTCTTTTGCGGAGTCACCTAGTGCAG”, the binding signal was 20800 fluorescence intensity (a.u.).

The values are drawn from publication PMC7819943, “Rice protein-binding microarrays: a tool to detect cis-acting elements near promoter regions in rice”.
